Some entries share one result that the patent states for a list of compounds. At least one structure is not confirmed: it was looked up by name or label, or the drawing left a doubt.
How the values were obtained:
Type in all cases: in vivo
Heliothis virescens = assay: B.4 Tobacco Budworm, microtiter plate diet test; details: 2500 ppm; egg and larval mortality, 5 days
Procedure: For evaluating control of Tobacco Budworm, the test unit consisted of 96-well-microtiter plates containing an insect diet and 15-25 H. virescens eggs. The compounds were formulated using a solution containing 75% v/v water and 25% v/v DMSO. Different concentrations of formulated compounds were sprayed onto the insect diet at 10 μl, using a custom-built micro atomizer, at two replications. After application, microtiter plates were incubated at about 28±1° C. and about 80±5% relative humidity for 5 days. Egg and larval mortality was then visually assessed.

Anthonomus grandis = assay: B.1 Boll weevil (Anthonomus grandis), 96-well microtiter plate diet test; details: 2500 ppm; egg and larval mortality, 5 days
Procedure: For evaluating control of boll weevil, the test unit consisted of 96-well-microtiter plates containing an insect diet and 5-10 A. grandis eggs.
The compounds were formulated using a solution containing 75% v/v water and 25% v/v DMSO. Different concentrations of formulated compounds were sprayed onto the insect diet at 5 μl, using a custom-built micro atomizer, at two replications.
After application, microtiter plates were incubated at about 25±1° C. and about 75±5% relative humidity for 5 days. Egg and larval mortality were then visually assessed.

Aedes aegypti = details: 2500 ppm; larval mortality, 2 days
Procedure: For evaluating control of Yellow Fever Mosquito, the test unit consisted of 96-well-microtiter plates containing 200 μl of tap water per well and 5-15 freshly hatched A. aegypti larvae. The active compounds were formulated using a solution containing 75% (v/v) water and 25% (v/v) DMSO. Different concentrations of formulated compounds or mixtures were sprayed onto the insect diet at 2.5 μl, using a custom-built micro atomizer, at two replications.
After application, microtiter plates were incubated at 28±1° C., 80±5% RH for 2 days. Larval mortality was then visually assessed.

Myzus persicae = assay: B.3 Green Peach Aphid (mixed life stages), systemic artificial diet test; details: 2500 ppm; treated aphid diet, 3 days
Description: For evaluating control of Green Peach Aphid through systemic means the test unit consisted of 96-well-microtiter plates containing liquid artificial diet under an artificial membrane. The compounds were formulated using a solution containing 75% v/v water and 25% v/v DMSO. Different concentrations of formulated compounds were pipetted into the aphid diet, using a custom-built pipette, at two replications. After application, 5-8 adult aphids were placed on the artificial membrane inside the microtiter plate wells. The aphids were then allowed to suck on the treated aphid diet and incubated at about 23±1° C. and about 50±5% relative humidity for 3 days. Aphid mortality and fecundity was then visually assessed.

Measured: mortality in comparison with untreated controls

CCN(C1=NOC(c2cc(Cl)cc(Cl)c2)(C(F)(F)F)C1)c1ccc(OC(F)(F)F)c(C(=O)NC2CON(C)C2=O)c1 (mixture of isomers) [I-211]
at least 75%: Heliothis virescens | Anthonomus grandis | Aedes aegypti | Myzus persicae

CCN(C1=NOC(c2cc(Cl)cc(Cl)c2)(C(F)(F)F)C1)c1ccc(F)c(C(=O)NC2CON(C)C2=O)c1 (mixture of isomers) [I-231]
at least 75%: Heliothis virescens | Anthonomus grandis | Aedes aegypti | Myzus persicae

CCN(C1=NOC(c2cc(Cl)c(F)c(Cl)c2)(C(F)(F)F)C1)c1ccc(Cl)c(C(=O)Nc2ncccc2F)c1 (stereo not shown) [I-191]
at least 75%: Heliothis virescens | Anthonomus grandis | Aedes aegypti | Myzus persicae

COCN(C1=NOC(c2cc(Cl)c(F)c(Cl)c2)(C(F)(F)F)C1)c1ccc(Cl)c(C(=O)Nc2ccc(F)cn2)c1 (stereo not shown) [I-188]
at least 75%: Heliothis virescens | Anthonomus grandis | Aedes aegypti | Myzus persicae

CCN(C1=NOC(c2cc(Cl)cc(Cl)c2)(C(F)(F)F)C1)c1ccc(F)c(C(=O)Nc2ccc(F)cn2)c1 (stereo not shown) [I-227]
at least 75%: Heliothis virescens | Anthonomus grandis | Aedes aegypti | Myzus persicae

CCN(C1=NOC(c2cc(Cl)c(F)c(Cl)c2)(C(F)(F)F)C1)c1ccc(Cl)c(C(=O)N(C)c2ccccn2)c1 (stereo not shown) [I-190]
at least 75%: Heliothis virescens | Anthonomus grandis | Aedes aegypti | Myzus persicae

CCN(C1=NOC(c2cc(Cl)c(F)c(Cl)c2)(C(F)(F)F)C1)c1ccc(Cl)c(C(=O)Nc2ccccn2)c1 (stereo not shown) [I-192]
at least 75%: Heliothis virescens | Anthonomus grandis | Aedes aegypti | Myzus persicae

CCN(C1=NOC(c2cc(Cl)cc(Cl)c2)(C(F)(F)F)C1)c1ccc(OC(F)(F)F)c(C(=O)Nc2ccc(C#N)cn2)c1 (stereo not shown) [I-200]
at least 75%: Heliothis virescens | Anthonomus grandis | Aedes aegypti | Myzus persicae

CCN(C1=NOC(c2ccc(F)c(Cl)c2)(C(F)(F)F)C1)c1ccc(Cl)c(C(=O)Nc2ncc(F)cc2F)c1 (stereo not shown) [I-232]
at least 75%: Heliothis virescens | Anthonomus grandis | Aedes aegypti | Myzus persicae

CCOCN(C1=NOC(c2cc(Cl)c(F)c(Cl)c2)(C(F)(F)F)C1)c1ccc(Cl)c(C(=O)Nc2ccccn2)c1 (stereo not shown) [I-212]
at least 75%: Heliothis virescens | Anthonomus grandis | Aedes aegypti | Myzus persicae

CCOCN(C1=NOC(c2cc(Cl)c(F)c(Cl)c2)(C(F)(F)F)C1)c1ccc(Cl)c(C(=O)Nc2ccc(Cl)cn2)c1 (stereo not shown) [I-215]
at least 75%: Heliothis virescens | Anthonomus grandis | Aedes aegypti | Myzus persicae

CCN(C1=NOC(c2ccc(F)c(Cl)c2)(C(F)(F)F)C1)c1ccc(Cl)c(C(=O)Nc2ccc(F)cn2)c1 (stereo not shown) [I-230]
at least 75%: Heliothis virescens | Anthonomus grandis | Aedes aegypti | Myzus persicae

CCN(C1=NOC(c2ccc(F)c(Cl)c2)(C(F)(F)F)C1)c1ccc(Cl)c(C(=O)N(C)c2ccccn2)c1 (stereo not shown) [I-219]
at least 75%: Heliothis virescens | Anthonomus grandis | Aedes aegypti | Myzus persicae

CSc1ccc(NC(=O)c2cc(NC3=NOC(c4cc(Cl)c(F)c(Cl)c4)(C(F)(F)F)C3)ccc2Cl)nc1 (stereo not shown) [I-246]
at least 75%: Heliothis virescens | Anthonomus grandis | Aedes aegypti | Myzus persicae

CCN(C1=NOC(c2cc(Cl)cc(Cl)c2)(C(F)(F)F)C1)c1ccc(F)c(C(=O)Nc2ncc(F)cc2F)c1 (stereo not shown) [I-222]
at least 75%: Heliothis virescens | Anthonomus grandis | Aedes aegypti | Myzus persicae

CCOc1cccc(NC(=O)c2cc(NC3=NOC(c4cc(Cl)c(F)c(Cl)c4)(C(F)(F)F)C3)ccc2Cl)n1 (stereo not shown) [I-250]
at least 75%: Heliothis virescens | Anthonomus grandis | Aedes aegypti | Myzus persicae

CCN(C1=NOC(c2ccc(F)c(Cl)c2)(C(F)(F)F)C1)c1ccc(Cl)c(C(=O)NC2CON(C)C2=O)c1 (mixture of isomers) [I-221]
at least 75%: Heliothis virescens | Anthonomus grandis | Aedes aegypti | Myzus persicae

O=C(Nc1ccc(OC(F)(F)F)cn1)c1cc(NC2=NOC(c3cc(Cl)c(F)c(Cl)c3)(C(F)(F)F)C2)ccc1Cl (stereo not shown) [I-238]
at least 75%: Heliothis virescens | Anthonomus grandis | Aedes aegypti | Myzus persicae

O=C(Nc1cccnn1)c1cc(NC2=NOC(c3cc(Cl)c(F)c(Cl)c3)(C(F)(F)F)C2)ccc1Cl (stereo not shown) [I-240]
at least 75%: Heliothis virescens | Anthonomus grandis | Aedes aegypti | Myzus persicae

CCN(C1=NOC(c2cc(Cl)cc(Cl)c2)(C(F)(F)F)C1)c1ccc(OC(F)(F)F)c(C(=O)NC2(C#N)CC2)c1 (stereo not shown) [I-206]
at least 75%: Heliothis virescens | Anthonomus grandis | Aedes aegypti | Myzus persicae

CCN(C1=NOC(c2cc(Cl)cc(Cl)c2)(C(F)(F)F)C1)c1ccc(F)c(C(=O)NC2(C#N)CC2)c1 (stereo not shown) [I-220]
at least 75%: Heliothis virescens | Anthonomus grandis | Aedes aegypti | Myzus persicae

CCN(C1=NOC(c2cc(Cl)cc(Cl)c2)(C(F)(F)F)C1)c1ccc(OC(F)(F)F)c(C(=O)Nc2ncccc2F)c1 (stereo not shown) [I-216]
at least 75%: Heliothis virescens | Anthonomus grandis | Aedes aegypti | Myzus persicae

From US12595239B2, “Substituted isoxazoline derivatives” (BASF SE, priority 2021, dated 2026)
